Source: the supplement of paper PMC3334620
In all, about 33,000 sequences were measured (“E-score (-0.5 to 0.5)”: median about -0.0014, highest 2% from about 0.25 on). This is one part of the list.

target: T1, Cad1 (UniProt P24813); assay: PBM E-score (8-mer binding enrichment) (E-score (-0.5 to 0.5)); higher = stronger / more preferred TF binding; conditions: protein concentration: 100 nM; construct: GST-full length
T1 sequence: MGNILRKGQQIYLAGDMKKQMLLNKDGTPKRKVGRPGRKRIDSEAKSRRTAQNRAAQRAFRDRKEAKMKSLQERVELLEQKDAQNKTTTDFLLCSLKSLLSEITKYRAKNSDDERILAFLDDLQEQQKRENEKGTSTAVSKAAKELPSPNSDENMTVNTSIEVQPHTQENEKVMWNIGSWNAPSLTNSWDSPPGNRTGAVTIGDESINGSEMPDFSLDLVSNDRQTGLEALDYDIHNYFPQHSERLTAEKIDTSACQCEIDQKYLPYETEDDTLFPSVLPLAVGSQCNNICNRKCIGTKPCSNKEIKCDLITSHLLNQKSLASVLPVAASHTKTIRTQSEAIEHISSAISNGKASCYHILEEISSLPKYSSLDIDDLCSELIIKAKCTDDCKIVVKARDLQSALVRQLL
Outline: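 Yeast transcription factors carrying a GST tag, as full-length proteins or DNA-binding domains, were produced by PURExpress in vitro transcription/translation. About 100-200 nM protein was applied to universal all-10-mer Agilent arrays, double-stranded by primer extension on fresh or once-stripped slides. Bound protein was detected with fluorescent anti-GST, and scans were normalised with masliner. The Universal PBM Analysis Suite gave each ungapped eight-base word, pooled with its reverse complement, an E-score, a modified Wilcoxon-Mann-Whitney statistic.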

Row | Sequence | PBM E-score
1 | TAGTGCAA | 0.197
2 | CATAACGA | 0.0579
3 | CGCAATAA | 0.159
4 | GGACCGAA | 0.0997
5 | AAGGGAAC | -0.0524
6 | ACGGCCGT | -0.0548
7 | ATCTAAGA | -0.103
8 | ACGTAACA | 0.0773
9 | ATTACAGG | 0.228
10 | ATGACAGA | 0.0846
11 | GTTAGCCA | -0.055
12 | AACTACGT | -0.0242
13 | ACATATAA | 0.115
14 | GCAATACC | -0.0457
15 | CCTAAGCG | -0.0185
16 | GCTGGTGA | 0.0363
17 | AGGACAAC | -0.0394
18 | GCGACCTA | 0.00515
19 | ATAAAAGG | -0.231
20 | GAAATTTA | 0.192
21 | AGTCCAAG | -0.0288
22 | TCTATTAA | 0.0815

Row | Sequence | PBM E-score
23 | GGAAAGAC | -0.184
24 | TCATCCGA | 0.134
25 | CCTCCAAC | -0.119
26 | ACGATATA | 0.0816
27 | CACAGAAG | 0.0443
28 | ACATGCTC | -0.0876
29 | ATATAAGC | 0.192
30 | TAATGGGA | -0.203
31 | TAGCAGCA | -0.00113
32 | CCGACGCG | 0.0401
33 | CCGTGCCA | -0.13
34 | CACGAAAC | 0.0654
35 | GGCAAAAC | -0.0978
36 | ACACTACG | 0.0225
37 | CAATTGTC | 0.146
38 | AGTGTCGA | -0.0678
39 | GACTTATA | 0.214
40 | GCATTGTA | -0.178
41 | ATCTCGGA | 0.204
42 | AAATGCGA | 0.0875
43 | ACAGGAAC | -0.0285
44 | CGGGCTTC | -0.0964

Single values from the entries so far:
Value of ATATAAGC under PBM E-score: 0.192
Value of CCTCCAAC under PBM E-score: -0.119

Remaining list, next part

Row | Sequence | PBM E-score
45 | GGCGACGA | -0.071
46 | TTCATAAA | 0.0746
47 | CCGCCTCG | -0.0661
48 | AGGTTGTA | -0.0369
49 | ACCCACGG | -0.212
50 | ACGTGGCA | -0.178
51 | CTATAGGA | -0.0308
52 | TCTGTTCA | 0.103
53 | ATCCTCCA | -0.128
54 | GCTGTGAC | -0.0618
55 | ACGACTAC | -0.0918
56 | ACTATGAG | -0.0731
57 | CGATTGAG | -0.0329
58 | GAATTATA | 0.19
59 | CTACTACA | 0.196
60 | CAACAGTG | 0.0579
61 | ACACCCCA | -0.0789
62 | GGAAGAAC | -0.00741
63 | AATGTCGA | 0.199
64 | ACCACGGC | -0.0698
65 | CGTTCGAG | 0.0406
66 | CGACGACA | -0.109

Row | Sequence | PBM E-score
67 | AGGAGTCA | 0.0303
68 | CCTGGTGA | -0.0273
69 | AAGTGACT | -0.0619
70 | AACCCGAC | 0.122
71 | CAATCTCC | 0.0166
72 | CGGGCGGC | -0.138
73 | GCCAGAGC | -0.132
74 | GGCGCAAA | 0.143
75 | AGCCCAAA | 0.0873
76 | CCCGCCAA | -0.0379
77 | ATGTTTCC | -0.00726
78 | CGAAGCGA | 0.0918
79 | AAACTCAA | 0.163
80 | CGTGGGTC | -0.0915
81 | AGAGGGAC | -0.293
82 | ACAGCAGT | 0.00346
83 | ACCAAAGG | -0.0188
84 | CGTTTTAA | 0.11
85 | GCGCGGAC | 0.224
86 | GTAATTTA | 0.267
87 | CCCTGGTC | -0.354
88 | CCCAATGC | -0.264

Row | Sequence | PBM E-score
89 | ACCTGAAT | 0.163
90 | CGGATGGC | -0.0867
91 | ACATTTTA | 0.156
92 | GCGTTCGA | 0.113
93 | CTAGATTC | -0.174
94 | CTAACTCA | -0.0503
95 | ATCGAACA | 0.161
96 | AACGGTTG | 0.0328
97 | ATTCGGGC | 0.0103
98 | CTACTCAC | 0.0498
99 | ACTCCACA | -0.186
100 | AAAGTGAA | 0.0425
101 | AGACGGAA | 0.0522
102 | ACGAATTA | 0.0763
103 | TCCCTAAA | 0.0334
104 | GAGTATAA | 0.139
105 | CCATCGGG | -0.0691
106 | AGGTGCAG | -0.141
107 | AGTTGTGC | -0.0792
108 | CCGATTCC | 0.00025
109 | GGCTGGTA | -0.18

4 entries drawn at random from those above:
Row | Sequence | PBM E-score
91 | ACATTTTA | 0.156
28 | ACATGCTC | -0.0876
105 | CCATCGGG | -0.0691
94 | CTAACTCA | -0.0503
